Laboratory results as given in PMC6422423, “Constitutively active BRS3 is a genuinely orphan GPCR in placental mammals” (PLoS Biology, 2019).
Results are given in words; binding and its absence hold for the method and conditions named.

Key:
[1] = molecular target: T1, mouse bombesin receptor subtype-3 (mouse) (UniProt O54798); test: radioligand binding; displacement of 50 pM [125I]-Tyr42-GRP by unlabeled peptide on disaggregated transfected HEK293 cells; 1 h at 21°C; 24.5 mM HEPES pH 7.4, 98 mM NaCl; bound tracer separated by centrifugation; only the binder purified
T1 sequence: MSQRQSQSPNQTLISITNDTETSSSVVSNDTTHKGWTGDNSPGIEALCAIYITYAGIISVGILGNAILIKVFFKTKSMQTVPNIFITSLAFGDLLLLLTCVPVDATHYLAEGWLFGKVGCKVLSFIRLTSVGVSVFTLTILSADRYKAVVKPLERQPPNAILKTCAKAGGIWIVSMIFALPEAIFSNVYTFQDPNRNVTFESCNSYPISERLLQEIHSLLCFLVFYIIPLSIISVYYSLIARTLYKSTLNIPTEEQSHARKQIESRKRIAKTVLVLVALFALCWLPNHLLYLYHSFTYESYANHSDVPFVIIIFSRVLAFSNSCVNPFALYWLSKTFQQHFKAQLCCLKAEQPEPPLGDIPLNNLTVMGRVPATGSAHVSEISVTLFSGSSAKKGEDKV

[2] = molecular target: T2, human bombesin receptor subtype-3 (human) (UniProt P32247); test: as above
T2 sequence: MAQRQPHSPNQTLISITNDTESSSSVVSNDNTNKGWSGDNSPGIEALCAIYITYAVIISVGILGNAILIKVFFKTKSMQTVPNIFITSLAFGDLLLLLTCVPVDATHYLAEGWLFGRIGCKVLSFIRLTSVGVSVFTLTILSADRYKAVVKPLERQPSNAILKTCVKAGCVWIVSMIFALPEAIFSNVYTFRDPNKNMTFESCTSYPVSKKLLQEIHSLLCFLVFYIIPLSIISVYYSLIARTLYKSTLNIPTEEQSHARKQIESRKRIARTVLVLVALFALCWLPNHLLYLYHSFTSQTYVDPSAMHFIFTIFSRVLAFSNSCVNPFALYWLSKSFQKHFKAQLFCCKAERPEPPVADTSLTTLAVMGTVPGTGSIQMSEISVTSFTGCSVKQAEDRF

## APLQPGGSPALTKIYPRGSHWAVGHLM [gastrin-releasing peptide, unlabeled ligand peptide of the radioligand binding assays]
[1]
  binding: no binding (tested: Ki > 1,000 nM)
[2]
  binding: no binding (tested: Ki > 1,000 nM)
